Measurements from article doi:10.1101/2025.03.07.642025, “The TONSL-MMS22L complex and FANCM form an interdependent complex on chromatin to counter replication stress” (bioRxiv, 2025).
Results are given in words; binding and its absence hold for the method and conditions named. For some of these results: Binding seen in cells or lysates may run through a third protein. Some binding calls cover weakened binding; strength is not graded here.

Chains of the proteins cited; added tags and fusions are not shown.
UniProt Q8IYD8: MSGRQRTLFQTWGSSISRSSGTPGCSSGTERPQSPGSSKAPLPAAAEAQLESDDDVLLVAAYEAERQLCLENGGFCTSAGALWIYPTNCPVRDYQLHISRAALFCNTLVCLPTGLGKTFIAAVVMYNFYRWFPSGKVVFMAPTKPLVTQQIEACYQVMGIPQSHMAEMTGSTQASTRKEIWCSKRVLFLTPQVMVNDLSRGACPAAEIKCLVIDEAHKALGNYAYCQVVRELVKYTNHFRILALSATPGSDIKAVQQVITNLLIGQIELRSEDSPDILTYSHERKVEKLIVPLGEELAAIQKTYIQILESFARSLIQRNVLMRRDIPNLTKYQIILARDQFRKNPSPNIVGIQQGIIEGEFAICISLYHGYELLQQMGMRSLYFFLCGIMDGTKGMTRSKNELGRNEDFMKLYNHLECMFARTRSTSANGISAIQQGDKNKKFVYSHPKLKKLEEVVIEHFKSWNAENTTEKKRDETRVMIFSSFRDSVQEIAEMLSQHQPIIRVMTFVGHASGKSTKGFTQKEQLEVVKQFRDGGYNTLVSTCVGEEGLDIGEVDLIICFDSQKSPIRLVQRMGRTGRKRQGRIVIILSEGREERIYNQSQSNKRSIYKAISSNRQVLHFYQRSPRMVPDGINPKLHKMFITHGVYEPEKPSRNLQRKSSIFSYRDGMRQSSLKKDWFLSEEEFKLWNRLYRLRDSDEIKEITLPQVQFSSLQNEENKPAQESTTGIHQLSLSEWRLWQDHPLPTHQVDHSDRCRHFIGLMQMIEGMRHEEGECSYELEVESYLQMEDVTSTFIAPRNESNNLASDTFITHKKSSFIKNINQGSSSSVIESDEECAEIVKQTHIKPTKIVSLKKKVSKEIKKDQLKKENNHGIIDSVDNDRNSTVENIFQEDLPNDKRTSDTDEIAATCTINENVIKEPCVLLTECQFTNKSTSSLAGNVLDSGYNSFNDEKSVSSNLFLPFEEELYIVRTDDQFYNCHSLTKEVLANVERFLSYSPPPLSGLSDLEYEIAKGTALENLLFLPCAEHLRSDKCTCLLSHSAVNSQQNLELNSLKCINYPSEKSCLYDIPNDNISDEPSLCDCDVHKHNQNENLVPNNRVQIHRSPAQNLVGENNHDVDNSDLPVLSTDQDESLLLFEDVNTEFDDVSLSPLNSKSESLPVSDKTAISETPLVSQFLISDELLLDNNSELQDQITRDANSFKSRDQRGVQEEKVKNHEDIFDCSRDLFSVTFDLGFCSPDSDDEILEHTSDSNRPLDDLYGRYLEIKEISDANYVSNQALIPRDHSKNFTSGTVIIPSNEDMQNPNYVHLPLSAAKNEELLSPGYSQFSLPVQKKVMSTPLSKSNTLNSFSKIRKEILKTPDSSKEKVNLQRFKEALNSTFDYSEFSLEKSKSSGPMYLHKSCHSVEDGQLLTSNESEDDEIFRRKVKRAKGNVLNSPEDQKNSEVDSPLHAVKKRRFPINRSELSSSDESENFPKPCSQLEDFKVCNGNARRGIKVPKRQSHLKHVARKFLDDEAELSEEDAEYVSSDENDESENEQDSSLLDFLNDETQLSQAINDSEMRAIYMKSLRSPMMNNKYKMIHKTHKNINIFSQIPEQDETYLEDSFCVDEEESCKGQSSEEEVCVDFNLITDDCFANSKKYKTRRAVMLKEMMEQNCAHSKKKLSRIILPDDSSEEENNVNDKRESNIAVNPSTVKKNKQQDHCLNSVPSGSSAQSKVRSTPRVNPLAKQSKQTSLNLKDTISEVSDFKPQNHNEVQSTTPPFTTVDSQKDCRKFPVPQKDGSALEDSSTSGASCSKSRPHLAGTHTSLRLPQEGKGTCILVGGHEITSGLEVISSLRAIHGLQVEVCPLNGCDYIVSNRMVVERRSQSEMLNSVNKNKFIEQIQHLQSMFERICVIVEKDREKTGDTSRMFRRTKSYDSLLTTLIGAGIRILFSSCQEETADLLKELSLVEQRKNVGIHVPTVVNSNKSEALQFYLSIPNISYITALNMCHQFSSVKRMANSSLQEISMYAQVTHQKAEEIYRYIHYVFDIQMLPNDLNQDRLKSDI
UniProt Q8N2Z9: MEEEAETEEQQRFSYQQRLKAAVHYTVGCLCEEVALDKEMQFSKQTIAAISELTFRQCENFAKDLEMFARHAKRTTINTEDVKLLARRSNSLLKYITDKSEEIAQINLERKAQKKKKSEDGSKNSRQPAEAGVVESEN

B1: MMS22L (natural protein, human (endogenous in HeLa), UniProt Q6ZRQ5 1-1243, looked up)
chain: MENCSAASTFLTDSLELELGTEWCKPPYFSCAVDNRGGGKHFSGESYLCSGALKRLILNLDPLPTNFEEDTLEIFGIQWVTETALVNSSRELFHLFRQQLYNLETLLQSSCDFGKVSTLHCKADNIRQQCVLFLHYVKVFIFRYLKVQNAESHVPVHPYEALEAQLPSVLIDELHGLLLYIGHLSELPSVNIGAFVNQNQIKLFPPSWHLLHLHLDIHWLVLEILYMLGEKLKQVVYGHQFMNLASDNLTNISLFEEHCETLLCDLISLSLNRYDKVRSSESLMSDQCPCLCIKELWVLLIHLLDHRSKWFVSESFWNWLNKLLKTLLEKSSDRRRSSMPVIQSRDPLGFSWWIITHVASFYKFDRHGVPDEMRKVESNWNFVEELLKKSISVQGVILEEQLRMYLHCCLTLCDFWEPNIAIVTILWEYYSKNLNSSFSISWLPFKGLANTMKSPLSMLEMVKTCCCDKQDQELYKSSSSYTIFLCILAKVVKKAMKSNGPHPWKQVKGRIYSKFHQKRMEELTEVGLQNFFSLFLLLAAVAEVEDVASHVLDLLNFLKPAFVTSQRALIWKGHMAFLLMYAQKNLDIGVLAEKFSCAFREKAKEFLVSKNEEMVQRQTIWTLLSIYIDGVQEVFETSYCLYPSHEKLLNDGFSMLLRACRESELRTVLSFLQAVLARIRSMHQQLCQELQRDNVDLFVQSSLSAKERHLAAVASALWRHFFSFLKSQRMSQVVPFSQLADAAADFTLLAMDMPSTAPSDFQPQPVISIIQLFGWDDIICPQVVARYLSHVLQNSTLCEALSHSGYVSFQALTVRSWIRCVLQMYIKNLSGPDDLLIDKNLEEAVEKEYMKQLVKLTRLLFNLSEVKSIFSKAQVEYLSISEDPKKALVRFFEAVGVTYGNVQTLSDKSAMVTKSLEYLGEVLKYIKPYLGKKVFSAGLQLTYGMMGILVKSWAQIFATSKAQKLLFRIIDCLLLPHAVLQQEKELPAPMLSAIQKSLPLYLQGMCIVCCQSQNPNAYLNQLLGNVIEQYIGRFLPASPYVSDLGQHPVLLALRNTATIPPISSLKKCIVQVIRKSYLEYKGSSPPPRLASILAFILQLFKETNTDIYEVELLLPGILKCLVLVSEPQVKRLATENLQYMVKACQVGSEEEPSSQLTSVFRQFIQDYGMRYYYQVYSILETVATLDQQVVIHLISTLTQSLKDSEQKWGLGRNIAQREAYSKLLSHLGQMGQDEMQRLENDNT
notes: MMS22L, human, endogenous in HeLa cells; source: endogenous, HeLa
B2: TONSL (natural protein, human (endogenous in HeLa), UniProt Q96HA7 1-1378, looked up)
chain: MSLERELRQLSKAKAKAQRAGQRREEAALCHQLGELLAGHGRYAEALEQHWQELQLRERADDPLGCAVAHRKIGERLAEMEDYPAALQHQHQYLELAHSLRNHTELQRAWATIGRTHLDIYDHCQSRDALLQAQAAFEKSLAIVDEELEGTLAQGELNEMRTRLYLNLGLTFESLQQTALCNDYFRKSIFLAEQNHLYEDLFRARYNLGTIHWRAGQHSQAMRCLEGARECAHTMRKRFMESECCVVIAQVLQDLGDFLAAKRALKKAYRLGSQKPVQRAAICQNLQHVLAVVRLQQQLEEAEGRDPQGAMVICEQLGDLFSKAGDFPRAAEAYQKQLRFAELLDRPGAERAIIHVSLATTLGDMKDHHGAVRHYEEELRLRSGNVLEEAKTWLNIALSREEAGDAYELLAPCFQKALSCAQQAQRPQLQRQVLQHLHTVQLRLQPQEAPETETRLRELSVAEDEDEEEEAEEAAATAESEALEAGEVELSEGEDDTDGLTPQLEEDEELQGHLGRRKGSKWNRRNDMGETLLHRACIEGQLRRVQDLVRQGHPLNPRDYCGWTPLHEACNYGHLEIVRFLLDHGAAVDDPGGQGCEGITPLHDALNCGHFEVAELLLERGASVTLRTRKGLSPLETLQQWVKLYRRDLDLETRQKARAMEMLLQAAASGQDPHSSQAFHTPSSLLFDPETSPPLSPCPEPPSNSTRLPEASQAHVRVSPGQAAPAMARPRRSRHGPASSSSSSEGEDSAGPARPSQKRPRCSATAQRVAAWTPGPASNREAATASTSRAAYQAAIRGVGSAQSRLGPGPPRGHSKALAPQAALIPEEECLAGDWLELDMPLTRSRRPRPRGTGDNRRPSSTSGSDSEESRPRARAKQVRLTCMQSCSAPVNAGPSSLASEPPGSPSTPRVSEPSGDSSAAGQPLGPAPPPPIRVRVQVQDHLFLIPVPHSSDTHSVAWLAEQAAQRYYQTCGLLPRLTLRKEGALLAPQDLIPDVLQSNDEVLAEVTSWDLPPLTDRYRRACQSLGQGEHQQVLQAVELQGLGLSFSACSLALDQAQLTPLLRALKLHTALRELRLAGNRLGDKCVAELVAALGTMPSLALLDLSSNHLGPEGLRQLAMGLPGQATLQSLEELDLSMNPLGDGCGQSLASLLHACPLLSTLRLQACGFGPSFFLSHQTALGSAFQDAEHLKTLSLSYNALGAPALARTLQSLPAGTLLHLELSSVAAGKGDSDLMEPVFRYLAKEGCALAHLTLSANHLGDKAVRDLCRCLSLCPSLISLDLSANPEISCASLEELLSTLQKRPQGLSFLGLSGCAVQGPLGLGLWDKIAAQLRELQLCSRRLCAEDRDALRQLQPSRPGPGECTLDHGSKLFFRRL
notes: TONSL, human, endogenous in HeLa cells; source: endogenous, HeLa

Key:
[1] = molecular target: FANCM (human (endogenous in HeLa)) (UniProt Q8IYD8); test: proximity ligation; Duolink PLA in HeLa cells treated with UVA only (no replication stress)
[2] = molecular target: FANCM (human (endogenous in HeLa)) (UniProt Q8IYD8); test: co-IP; IP with FANCM or MHF1 antibody, western blotting; preimmune serum as control; HU-treated HeLa
[3] = molecular target: MHF1 (human (endogenous in HeLa)) (UniProt Q8N2Z9); test: as above
[4] = molecular target: Flag-tagged FANCM (human) (UniProt Q8IYD8); test: co-IP; Flag antibody purification from HU-treated HEK293 cells stably expressing Flag-FANCM; immunoblotting
[5] = molecular target: FANCM (human (endogenous in HeLa)) (UniProt Q8IYD8); test: SEC; Superose 6 gel filtration of soluble chromatin-bound proteins of HU-treated HeLa cells; fractions immunoblotted

| Binder | binding [1] | binding [2] | binding [3] | binding [4] | binding [5] |
| --- | --- | --- | --- | --- | --- |
| B1 | binds weakly | binds | binds | binds | binds |
| B2 | binds weakly | binds | binds | binds | binds |
